{"source": "patent US5663335A", "about": "“Immunosuppressive compounds and methods” (priority 1996, dated 1997)", "key": {"[1]": {"system": "cultured human PBMC and mouse thymocytes", "experiment": "Cytotoxicity by MTT assay, reported with the MLR assay (Table II)", "assay_type": "cell-based", "conditions": "cytotoxic when toxicity greater than 25%", "method": "(§1) Potential cytotoxicity of the test samples was assessed by the measurement of their effect on the reduction of MTT (3-[4,5-Dimethylthiazole-2-yl]-2,5-diphenyltetrazolium bromide) by cultured cells. MTT, a yellow-colored compound, is reduced by mitochondrial enzymes to form the purple crystalline reduction product formazane, providing an index of cellular respiration on viable cells as well as a sensitive assay for cytotoxicity (Mossmann, 1983).\n(§2) The cytotoxicity was assessed in cultured human PBMC and mouse thymocytes. A stock solution of MTT (Sigma) at 5 mg/ml in phosphate buffered saline, pH 7.4, was prepared and stored in the dark at 4° C. PBMCs or thymocytes were cultured with various concentrations of test samples in flatbottom 96-well tissue culture plates (Costar) under the same conditions as those described above, but the stimulants (X-35 or IL-1+PHA) were replaced by appropriate medium. Untreated cells with medium alone and without the test samples were used as controls. After incubation for 21 hours, 25 μl of MTT solution was added to each well. After an additional three hours of incubation, the experiment was terminated by addition of a solution of 10% sodium dodecyl sulfate in 0.01N HCl. Following overnight incubation at 37° C. to solubilize the formazane crystals, optical density was determined at 570-650 nm in microplate reader. The following formula was used to calculate % of toxicity:\n(§3) % of toxicity=(1-sample OD/control OD)×100\n(§4) Samples were defined as cytotoxic when toxicity was greater than 25% in the assay system used."}, "[2]": {"system": "mouse thymocytes", "experiment": "Cytotoxicity by MTT assay, reported with the IL-1 assay (Table I)", "assay_type": "cell-based", "conditions": "cytotoxic when toxicity greater than 25%", "method": "as §1, §2, §3, §4"}}, "note": "Counter-ions that a name gives are not always drawn. The name of at least one read-out is uncertain.", "data": [{"smiles": "CC(C)C12OC1C1OC13C1(C)CCC4=C(COC4=O)C1CC1OC13C2OC(=O)CCC(=O)O", "note": "(stereo not shown) [YM-262, Triptolide Succinate]", "values": [{"measurement": "Toxicity", "setting": "[1]", "value": 2258, "unit": "ng/mL"}]}, {"smiles": "CC(C)C12OC1C1OC13C1(C)CCC4=C(COC4=O)C1CC1OC13C2OC(=O)CCC(=O)O", "note": "(stereo not shown) [YM-273, Triptolide Succinate Tris Salt]", "values": [{"measurement": "Toxicity", "setting": "[2]", "value": 12000, "unit": "ng/mL"}, {"measurement": "Toxicity", "setting": "[1]", "value": 5529, "unit": "ng/mL"}]}, {"smiles": "CC(C)C12OC1C1OC13C1(C)CCC4=C(COC4=O)C1CC1OC13C2OC(=O)CCC(=O)O", "note": "(stereo not shown) [YM-274, Triptolide Succinate Sodium Salt]", "values": [{"measurement": "Toxicity", "setting": "[2]; Succinate Sodium Salt", "value": "> 12500", "unit": "ng/mL"}, {"measurement": "Toxicity", "setting": "[1]; Succinate Sodium Salt", "value": 2498, "unit": "ng/mL"}]}, {"smiles": "CC(C)C12OC1C1OC13C1(C)CCC4=C(COC4=O)C1CC1OC13C2OC(=O)CCC(=O)O", "note": "(stereo not shown) [YM-276, Triptolide Succinate Lysine Salt]", "values": [{"measurement": "Toxicity", "setting": "[2]", "value": "> 12500", "unit": "ng/mL"}, {"measurement": "Toxicity", "setting": "[1]", "value": 1936, "unit": "ng/mL"}]}]}
